According to publication PMC5824486:
No constants are given. Whether binding was seen depends on the method and setting. In cells and extracts the contact can be indirect. Some entries that bind do so weakly or less than the wild type.

The chains behind the UniProt entries cited, without tags or fusion partners.
UniProt Q92826: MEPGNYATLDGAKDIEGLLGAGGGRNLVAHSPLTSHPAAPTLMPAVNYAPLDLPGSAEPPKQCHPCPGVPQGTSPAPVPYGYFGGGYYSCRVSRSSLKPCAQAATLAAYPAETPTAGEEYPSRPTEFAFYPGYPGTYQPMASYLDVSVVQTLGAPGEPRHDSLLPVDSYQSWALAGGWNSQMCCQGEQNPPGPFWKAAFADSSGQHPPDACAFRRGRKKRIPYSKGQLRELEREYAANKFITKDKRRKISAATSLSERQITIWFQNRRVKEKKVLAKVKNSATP
UniProt Q09472: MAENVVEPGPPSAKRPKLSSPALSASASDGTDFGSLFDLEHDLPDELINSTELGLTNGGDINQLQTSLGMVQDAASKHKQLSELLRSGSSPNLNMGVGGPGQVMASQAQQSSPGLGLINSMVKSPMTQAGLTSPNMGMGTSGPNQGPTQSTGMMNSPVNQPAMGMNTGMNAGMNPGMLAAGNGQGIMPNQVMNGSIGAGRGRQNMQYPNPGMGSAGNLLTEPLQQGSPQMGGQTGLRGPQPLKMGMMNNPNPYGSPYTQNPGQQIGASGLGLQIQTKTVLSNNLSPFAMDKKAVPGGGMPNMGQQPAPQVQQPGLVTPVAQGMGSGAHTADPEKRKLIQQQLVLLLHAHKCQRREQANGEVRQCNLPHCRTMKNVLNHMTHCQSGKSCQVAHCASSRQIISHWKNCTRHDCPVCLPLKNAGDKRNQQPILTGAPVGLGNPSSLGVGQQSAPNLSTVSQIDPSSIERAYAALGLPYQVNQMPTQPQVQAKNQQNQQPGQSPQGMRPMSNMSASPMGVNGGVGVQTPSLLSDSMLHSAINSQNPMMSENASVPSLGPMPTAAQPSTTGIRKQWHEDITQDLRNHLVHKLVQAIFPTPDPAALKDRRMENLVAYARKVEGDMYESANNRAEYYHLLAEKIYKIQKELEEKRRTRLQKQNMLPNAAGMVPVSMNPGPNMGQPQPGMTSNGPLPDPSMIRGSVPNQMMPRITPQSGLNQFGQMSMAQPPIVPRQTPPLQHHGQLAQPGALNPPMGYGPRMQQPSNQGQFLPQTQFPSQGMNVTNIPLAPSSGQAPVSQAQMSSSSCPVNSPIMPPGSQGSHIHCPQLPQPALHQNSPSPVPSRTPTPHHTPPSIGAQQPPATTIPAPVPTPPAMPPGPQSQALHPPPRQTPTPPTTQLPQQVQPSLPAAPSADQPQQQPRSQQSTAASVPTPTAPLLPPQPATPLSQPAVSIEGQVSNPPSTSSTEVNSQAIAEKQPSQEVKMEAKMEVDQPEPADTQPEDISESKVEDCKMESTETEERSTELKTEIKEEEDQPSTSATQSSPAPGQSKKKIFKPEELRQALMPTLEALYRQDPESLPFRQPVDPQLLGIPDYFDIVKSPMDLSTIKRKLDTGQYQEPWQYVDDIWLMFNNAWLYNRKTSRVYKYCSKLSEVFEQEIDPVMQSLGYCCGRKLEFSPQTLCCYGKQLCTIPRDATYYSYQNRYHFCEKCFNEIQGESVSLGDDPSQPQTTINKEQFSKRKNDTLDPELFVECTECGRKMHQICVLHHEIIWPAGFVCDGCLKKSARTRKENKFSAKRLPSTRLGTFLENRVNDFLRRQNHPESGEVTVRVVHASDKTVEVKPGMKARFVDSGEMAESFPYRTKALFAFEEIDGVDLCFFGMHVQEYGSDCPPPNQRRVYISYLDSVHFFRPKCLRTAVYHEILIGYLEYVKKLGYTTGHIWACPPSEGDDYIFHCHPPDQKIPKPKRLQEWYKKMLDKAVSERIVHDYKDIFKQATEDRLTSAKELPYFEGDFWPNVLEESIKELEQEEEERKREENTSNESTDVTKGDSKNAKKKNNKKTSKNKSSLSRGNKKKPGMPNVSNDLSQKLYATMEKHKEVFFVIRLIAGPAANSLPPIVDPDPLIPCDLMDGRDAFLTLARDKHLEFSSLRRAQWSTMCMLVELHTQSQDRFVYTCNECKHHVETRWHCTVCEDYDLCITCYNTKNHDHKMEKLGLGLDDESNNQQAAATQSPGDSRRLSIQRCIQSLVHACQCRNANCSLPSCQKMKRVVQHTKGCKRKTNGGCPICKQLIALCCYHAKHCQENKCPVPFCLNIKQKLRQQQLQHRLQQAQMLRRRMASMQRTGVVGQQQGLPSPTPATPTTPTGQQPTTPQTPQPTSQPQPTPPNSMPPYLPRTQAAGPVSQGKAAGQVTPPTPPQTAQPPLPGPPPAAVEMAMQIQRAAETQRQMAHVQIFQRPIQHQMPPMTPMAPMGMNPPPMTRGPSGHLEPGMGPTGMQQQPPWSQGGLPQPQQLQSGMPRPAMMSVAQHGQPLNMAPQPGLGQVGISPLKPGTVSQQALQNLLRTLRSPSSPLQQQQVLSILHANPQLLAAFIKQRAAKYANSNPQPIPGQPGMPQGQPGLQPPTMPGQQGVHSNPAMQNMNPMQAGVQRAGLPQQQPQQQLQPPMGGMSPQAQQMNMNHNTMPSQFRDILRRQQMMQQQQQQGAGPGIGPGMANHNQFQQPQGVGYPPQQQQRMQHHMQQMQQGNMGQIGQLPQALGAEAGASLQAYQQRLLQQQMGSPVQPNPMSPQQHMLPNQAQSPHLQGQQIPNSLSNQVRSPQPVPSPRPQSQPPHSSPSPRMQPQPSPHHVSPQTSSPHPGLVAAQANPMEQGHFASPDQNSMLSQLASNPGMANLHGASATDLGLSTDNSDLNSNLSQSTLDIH
UniProt P11142: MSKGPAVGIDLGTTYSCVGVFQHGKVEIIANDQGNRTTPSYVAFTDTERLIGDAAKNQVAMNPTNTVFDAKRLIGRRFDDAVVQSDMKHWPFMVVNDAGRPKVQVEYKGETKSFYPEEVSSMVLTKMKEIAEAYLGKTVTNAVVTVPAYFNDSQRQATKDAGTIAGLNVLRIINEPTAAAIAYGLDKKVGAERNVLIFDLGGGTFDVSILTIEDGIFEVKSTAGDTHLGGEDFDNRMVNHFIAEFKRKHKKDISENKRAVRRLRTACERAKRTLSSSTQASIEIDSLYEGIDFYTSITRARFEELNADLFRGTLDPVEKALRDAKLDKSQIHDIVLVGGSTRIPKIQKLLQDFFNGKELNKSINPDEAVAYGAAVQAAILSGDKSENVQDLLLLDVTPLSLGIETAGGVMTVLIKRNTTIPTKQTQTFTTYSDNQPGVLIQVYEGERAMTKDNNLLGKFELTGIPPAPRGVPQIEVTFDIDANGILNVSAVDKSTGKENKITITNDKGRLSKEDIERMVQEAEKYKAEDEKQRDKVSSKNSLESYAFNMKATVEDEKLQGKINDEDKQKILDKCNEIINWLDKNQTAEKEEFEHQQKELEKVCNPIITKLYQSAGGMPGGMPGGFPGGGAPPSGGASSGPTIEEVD

How the values were obtained:
[1] = target: HOXB13 (as in the Co-IP assays of Figures S3j and S4c; construct not told) (human) (UniProt Q92826); assay: co-IP; Co-IP of p300 and HOXB13 (Figure S3j); cells, constructs and bait not given
[2] = target: HOXB13 (as in the Co-IP assays of Figures S3j and S4c; construct not told) (human) (UniProt Q92826); assay: co-IP; Co-IP of HOXB13 and HSC70 (Figure S4c), without overexpression of HBXIP; cells, constructs and bait not given
[3] = target: HOXB13 (as in the Co-IP assays of Figures S3j and S4c; construct not told) (human) (UniProt Q92826); assay: co-IP; Co-IP of HOXB13 and HSC70 (Figure S4c), cells with overexpression of HBXIP; cells, constructs and bait not given

| binding [1] | binding [2] | Substance | binding [3] |
| --- | --- | --- | --- |
| binds | – | acetylase p300 (from UniProt Q09472 1-2414) (enzyme) | – |
| – | binds | heat shock 70 kDa protein 8 (HSC70) (from UniProt P11142 1-646) | no binding (condition: with overexpression of HBXIP) |
